Where a name gives a salt, the structure may show the parent alone. Some of the results follow. Single values are uncertain here, since repeats match poorly.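 The human kidney-derived cells carry a stably integrated construct of eight TEAD-binding elements driving luciferase, read by luminescence in a drug-repurposing library screen. A compound counts as a hit when its signal is more than five robust Z scores above the plate mean.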
Test system: HEK293A TEAD-LUC reporter
Experiment: TEAD-luciferase reporter activity (YAP activation), robust Z score vs plate; higher = stronger YAP/TEAD activation
Conditions: 24 h

Compound	TEAD-luciferase reporter activity (compound concentration: 2 uM)	TEAD-luciferase reporter activity (compound concentration: 200 nM)	TEAD-luciferase reporter activity (compound concentration: 10 uM)
COc1cc([C@@H]2c3cc4c(cc3[C@@H](O[C@@H]3O[C@@H]5CO[C@@H](C)O[C@H]5[C@H](O)[C@H]3O)[C@H]3COC(=O)[C@H]23)OCO4)cc(OC)c1O [etoposide]	inactive: 0.596	–	–
COc1cc([C@@H]2c3cc4c(cc3[C@@H](O[C@@H]3O[C@@H]5CO[C@@H](C)O[C@H]5[C@H](O)[C@H]3O)[C@H]3COC(=O)[C@H]23)OCO4)cc(OC)c1O	–	inactive: -1.62	active: 5.53
COc1cccc(OCC2CCCCN2)c1 (stereo not drawn)	active: 5.19	inactive: -1.09	inactive: -1.33
COc1ccc(OC(=O)N(CC(=O)O)C(C)c2ccc(OCCc3nc(-c4ccccc4)oc3C)cc2)cc1 (stereo not drawn)	inactive: -0.935	inactive: -0.733	inactive: 0.12
Cc1cccc(-c2cccc(CN3CCC(NC(=O)c4ccc(F)cc4)CC3)c2)c1	–	inactive: -1.31	active: 5.4
CN1Cc2cc(C(=O)N3CCC(C4CCNCC4)CC3)ccc2N[C@@H](CC(=O)O)C1=O	inactive: -0.215	inactive: 0.732	inactive: 2.17
N=C(N)NCC1CCCCCCN1 (stereo not drawn) [Guanazodine]	inactive: -0.557	inactive: -0.706	inactive: 1.57
CCCCc1nc(CCCC)n(Cc2ccc(-c3ccccc3-c3nnn[nH]3)nc2)n1	inactive: -1.11	inactive: 0.654	inactive: 0.554
CCCn1c(=O)n(CCC)c2cc(Cl)ccc21	inactive: -0.255	inactive: 0.678	inactive: 0.421
O=C(O)C1=CS[C@@H]2/C(=C\c3cnc4n3CCOC4)C(=O)N12	inactive: 2.38	–	–
O=C(O)C1=CS[C@@H]2/C(=C\c3cnc4n3CCOC4)C(=O)N12 [BLI-489 hydrate]	–	inactive: 2.29	inactive: -1.37
CC(C)(C)c1cc(CN)c(O)c(S(C)(=O)=O)c1 [lemidosul]	inactive: -0.659	inactive: -3.59	inactive: -0.789
CON(C)C(=O)[C@H](O)[C@H](Cc1ccccc1)NC(=O)c1cc2cc(Cl)ccc2[nH]1	inactive: 0.00391	inactive: 4.22	inactive: -1.9
COc1cc(C(=O)N2CCO[C@](CCN3CCC4(CC3)c3ccccc3CS4=O)(c3ccc(Cl)c(Cl)c3)C2)cc(OC)c1OC (stereo partly drawn)	inactive: -2.46	inactive: -0.853	inactive: 2.93
COc1ccc(-c2cc(C(OC)(OC)c3ccc(Cl)c(C(N)=O)c3)nn2-c2ccc(OC)cc2)cc1	inactive: -0.372	inactive: -0.856	inactive: 0.293
O=C(CN1CCCC1)N1c2ccccc2Sc2ccccc21	inactive: -0.13	inactive: 0.232	inactive: -0.268
CCC(N(NC(=O)c1cccc(OC)c1C)C(=O)c1cc(C)cc(C)c1)C(C)(C)C (stereo not drawn)	inactive: 2.9	inactive: -1.38	inactive: -0.144
CCCC(=O)C1c2cccc(O)c2C(=O)c2c(O)cccc21	inactive: 1.64	inactive: -0.709	inactive: 1.38
O=C1C=CN(C2OC(CO)C(O)C2O)C(=O)C1 (stereo not drawn) [3-Deazauridine]	–	inactive: 0.077	inactive: 1.45

A run of entries of the results above, for reference:
Compound	TEAD-luciferase reporter activity (compound concentration: 2 uM)	TEAD-luciferase reporter activity (compound concentration: 200 nM)	TEAD-luciferase reporter activity (compound concentration: 10 uM)
O=C(O)C1=CS[C@@H]2/C(=C\c3cnc4n3CCOC4)C(=O)N12 [BLI-489 hydrate]	–	inactive: 2.29	inactive: -1.37
CC(C)(C)c1cc(CN)c(O)c(S(C)(=O)=O)c1 [lemidosul]	inactive: -0.659	inactive: -3.59	inactive: -0.789
CON(C)C(=O)[C@H](O)[C@H](Cc1ccccc1)NC(=O)c1cc2cc(Cl)ccc2[nH]1	inactive: 0.00391	inactive: 4.22	inactive: -1.9

Continued:

Compound	TEAD-luciferase reporter activity (compound concentration: 2 uM)	TEAD-luciferase reporter activity (compound concentration: 200 nM)	TEAD-luciferase reporter activity (compound concentration: 10 uM)
O=C1C=CN(C2OC(CO)C(O)C2O)C(=O)C1 (stereo not drawn)	inactive: 1.36	–	–
N=C(N)SCCCCCCCC(=O)N[C@@H](CC(=O)O)C(=O)N[C@@H](Cc1ccccc1)C(=O)O	inactive: -0.0205	inactive: 0.216	inactive: 1.04
O=C1/C(=N\c2cccc(C(F)(F)F)c2)c2ccccc2N1c1ccccc1	inactive: -1.22	inactive: -0.777	inactive: -1.61
Nc1ccn([C@@H]2S[C@H](CO)[C@@H](O)[C@@H]2O)c(=O)n1	inactive: 0.628	inactive: -0.949	inactive: -1.48
CCO[C@@H](Cc1ccc(OCCc2ccc(OS(C)(=O)=O)cc2)cc1)C(=O)O [Tesaglitazar]	inactive: -1.19	inactive: -1.88	inactive: -0.671
CCN(CC)CCOCCOC(=O)C1(c2ccccc2)CCCC1	inactive: -1.09	inactive: -2.04	inactive: -1.55
Cc1ccc2c(c1)C(=O)CCC21CCC(=O)NC1=O (stereo not drawn)	inactive: -0.0912	inactive: 0.192	inactive: 0.0452
Cc1cc(C(=O)Nc2cc(Oc3ccc4nc(NC(=O)C5CC5)cn4n3)ccc2C)n(C)n1	inactive: -0.472	inactive: -1.1	inactive: 1.6
O=c1c(O)c(-c2ccc(O)cc2)oc2cc(O)cc(O)c12	inactive: -1.25	inactive: -2.16	active: 24.3
CCCCCOc1ccc(NC(=S)NC(=O)c2cccnc2)cc1C(F)(F)F	inactive: -0.712	inactive: -1.66	inactive: 0.86
Cc1nc[nH]c1CN1CCc2c(c3ccccc3n2C)C1=O [Alosetron HCl]	inactive: -0.375	inactive: 3.01	inactive: -1.11
COc1ccc(C(=O)N2CCCc3cc(C4=C(C)SC(=O)NN4)ccc32)cc1OC	inactive: -0.55	inactive: 0.814	inactive: -2.3
C=CC(=O)N1CC[C@H](n2nc(C#Cc3cc(OC)cc(OC)c3)c3c(N)ncnc32)C1	inactive: -0.459	inactive: -1.23	inactive: 0.361
NC(=O)[C@H]1CCN(c2ncnc(N)c2F)C[C@@H]1N1CCC[C@@H](Nc2cc(Cl)cc(C(F)(F)F)c2)C1=O	inactive: 0.254	inactive: 0.0361	inactive: 0.819
COCC(=O)NC1CCN(c2nc3ncccc3o2)CC1	–	inactive: 1.92	inactive: -1.56
O=C(/C=C/c1ccc(Cl)cc1Cl)NC[C@H]1CN(c2ccc(N3CCOCC3)c(F)c2)C(=O)O1	inactive: -2.13	inactive: -0.667	inactive: 2.73
CCc1ccc(CCOc2ccc(CC3SC(=O)NC3=O)cc2)nc1 (stereo not drawn)	–	inactive: -0.662	inactive: 3.95
CN1CCN([C@H]2C[C@H](c3ccccc3)c3ccccc32)CC1	inactive: -2.18	inactive: -0.847	inactive: 0.589
COc1cncc(/C=C/CCNC(C)(C)C)c1	inactive: -0.892	inactive: 1.94	inactive: 0.486

Compound	TEAD-luciferase reporter activity (compound concentration: 2 uM)	TEAD-luciferase reporter activity (compound concentration: 200 nM)	TEAD-luciferase reporter activity (compound concentration: 10 uM)
CCCCCCCCCCCC(=O)O [Lauric acid]	inactive: -1.56	inactive: -0.776	inactive: 1.28
Cc1nc2c(cc1-c1ccncc1)=NC(=O)N=2	inactive: -1.18	inactive: -0.0365	inactive: 0.317
COc1ccc(/C=N/NC2=NCCN2)cc1	inactive: -1.3	inactive: -1.55	inactive: 2.02
[O]=[Bi][O][Bi]=[O]	–	inactive: 4.15	inactive: -0.209
CCOc1ccc2c(c1)Sc1cccc(OC)c1C2=C1CCN(C)CC1	inactive: 0.151	inactive: -0.956	inactive: 0.256
Cc1ccc(O[C@H]2O[C@H](CCP(=O)(O)O)[C@@H](O)[C@H](O)[C@@H]2O)c(C)c1	inactive: 1.94	inactive: 2.73	inactive: -1.04
Nc1nc(I)nc2c1ncn2[C@@H]1O[C@H](CO)[C@@H](O)[C@H]1O	inactive: 0.925	inactive: -0.796	inactive: -1.23
O=C(Nc1ccc(N2CCCCC2)cc1)C(=O)c1c(-c2ccccc2)cc2ccccn12	inactive: -0.718	inactive: -0.347	inactive: 2.99
c1nc(NC2CCCC2)c2nc[nH]c2n1	inactive: -0.912	inactive: -0.854	inactive: 1.09
Cc1[nH]cnc1CSCCNc1nc(=O)c(Cc2ccc3c(c2)OCO3)c[nH]1 [oxmetidine]	inactive: 0.546	inactive: -0.101	inactive: -0.846
COC1/C=C/OC2(C)Oc3c(C)c(O)c4c(O)c(c(/C=N/N=C/N5CCCCC5)c(O)c4c3C2=O)NC(=O)/C(C)=C\C=C\C(C)C(O)C(C)C(O)C(C)C(OC(C)=O)C1C (stereo not drawn)	inactive: -0.77	inactive: -0.395	inactive: 4.86
CCC12CCCN3CCc4c(n(c5ccccc45)C(=O)C1)C32 (stereo not drawn) [vinburnine]	inactive: 4.05	inactive: -1.17	inactive: 0.586
CCOC(=O)/C=C1\SC(N2CCCCC2)C(=O)N1C (stereo not drawn) [dexetozoline]	inactive: 3.03	inactive: -1.37	inactive: 4.46
CN(C(=O)CN1C(=O)COc2cc(Cl)c(Cl)cc21)[C@@H](CN1CCOCC1)c1ccc(-c2ccc(C(=O)O)cc2)cc1	inactive: -0.264	inactive: -0.65	inactive: 0.295
Cc1ccc(Nc2nccc(N(C)c3ccc4c(C)n(C)nc4c3)n2)cc1S(N)(=O)=O [pazopanib hydrochloride (ophthalmic)]	inactive: -1.55	active: 7.72	inactive: -1.59
COCCO[C@@H]1c2ccn3c(C)c(C)nc3c2N[C@H](c2ccccc2)[C@H]1O [soraprazan]	inactive: 0.0645	inactive: -0.201	inactive: 3.91
O=C1NC(=O)C2(CCOc3ccc(F)cc32)N1 (stereo not drawn) [Sorbinil]	inactive: -0.234	inactive: -0.39	inactive: -0.272
CS(=O)(=O)Nc1ccc(F)c(C(O)CN)c1 (stereo not drawn) [Garomefrine hydrochloride]	inactive: 0.81	inactive: -0.0634	inactive: -0.122
CN1CCN(CCCN2c3ccccc3Sc3ccccc32)CC1	inactive: -0.571	inactive: 0.0996	inactive: -0.705

— the supplement of paper PMC10735217
